Results on 2 molecules are retold here after publication PMC6850887.

By UniProt entry, the sequences of proteins in these tests, tags left out.
UniProt P93002: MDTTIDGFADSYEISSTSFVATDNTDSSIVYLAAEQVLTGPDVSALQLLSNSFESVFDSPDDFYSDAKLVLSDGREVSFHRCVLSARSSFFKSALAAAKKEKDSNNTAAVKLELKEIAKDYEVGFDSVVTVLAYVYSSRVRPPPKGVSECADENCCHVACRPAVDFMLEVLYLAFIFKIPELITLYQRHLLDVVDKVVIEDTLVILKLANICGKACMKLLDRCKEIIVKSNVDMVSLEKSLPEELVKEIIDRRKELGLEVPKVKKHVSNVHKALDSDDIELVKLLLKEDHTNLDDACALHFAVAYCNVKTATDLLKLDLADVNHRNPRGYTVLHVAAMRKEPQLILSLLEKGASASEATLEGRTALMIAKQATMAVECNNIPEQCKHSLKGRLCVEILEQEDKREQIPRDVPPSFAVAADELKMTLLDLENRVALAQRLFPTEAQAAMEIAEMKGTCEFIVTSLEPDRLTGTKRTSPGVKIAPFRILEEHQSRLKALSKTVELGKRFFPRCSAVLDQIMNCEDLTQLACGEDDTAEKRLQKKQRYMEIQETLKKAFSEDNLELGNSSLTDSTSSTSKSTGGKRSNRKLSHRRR

Results are given in words; binding and its absence hold for the method and conditions named. In cells and extracts the contact can be indirect. Some entries that bind do so weakly or less than the wild type. Tags and fused reporters may be left off the sequences shown.

Assay [1] concerns the target T1, FLAG-tagged UBP6 (Arabidopsis thaliana) (UniProt Q949Y0).
T1 sequence: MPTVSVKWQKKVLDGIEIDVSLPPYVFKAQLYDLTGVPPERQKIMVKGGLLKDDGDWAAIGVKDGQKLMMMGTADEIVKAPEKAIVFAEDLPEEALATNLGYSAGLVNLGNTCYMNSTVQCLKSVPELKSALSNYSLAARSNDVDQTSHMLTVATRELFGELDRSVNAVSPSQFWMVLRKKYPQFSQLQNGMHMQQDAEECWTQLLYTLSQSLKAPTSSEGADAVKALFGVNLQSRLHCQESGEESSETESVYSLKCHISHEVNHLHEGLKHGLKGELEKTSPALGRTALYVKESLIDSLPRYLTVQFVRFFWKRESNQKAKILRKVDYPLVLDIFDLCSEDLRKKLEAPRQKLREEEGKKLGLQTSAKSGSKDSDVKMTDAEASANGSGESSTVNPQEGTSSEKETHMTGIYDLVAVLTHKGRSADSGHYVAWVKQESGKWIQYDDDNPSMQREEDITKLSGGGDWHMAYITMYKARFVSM
Kind of assay: co-IP; FLAG-UBP6 immunoprecipitated overnight at 4°C with anti-FLAG M2 affinity gel from seedling extract in proteasome extraction buffer (50 mM Tris-HCl pH 7.4, 25 mM NaCl, 2 mM MgCl2, 1 mM EDTA, 10 mM ATP, 5% glycerol); immunoblots against S5a and RPN6.

Assay [2] addresses polyubiquitinated NPR1-GFP (Arabidopsis thaliana) (UniProt P93002). Kind of assay: pull-down; polyubiquitinated NPR1-GFP purified from SA- and MG132-treated seedlings and held on GFP-Trap agarose, incubated for 2 hr with in vitro synthesised FLAG-UBE4; immunoblots with GFP and FLAG antibodies; only the target purified. Background: A western blot detects proteins with antibodies after separation by electrophoresis.

B1: proteasomal subunit S5a (protein, UniProt P55034 1-386)
chain: MVLEATMICIDNSEWMRNGDYSPSRLQAQTEAVNLLCGAKTQSNPENTVGILTMAGKGVRVLTTPTSDLGKILACMHGLDVGGEINLTAAIQIAQLALKHRQNKNQRQRIIVFAGSPIKYEKKALEIVGKRLKKNSVSLDIVNFGEDDDEEKPQKLEALLTAVNNNDGSHIVHVPSGANALSDVLLSTPVFTGDEGASGYVSAAAAAAAAGGDFDFGVDPNIDPELALALRVSMEEERARQEAAAKKAADEAGQKDKDGDTASASQETVARTTDKNAEPMDEDSALLDQAIAMSVGDVNMSEAADEDQDLALALQMSMSGEESSEATGAGNNLLGNQAFISSVLSSLPGVDPNDPAVKELLASLPDESKRTEEEESSSKKGEDEKK
Consider B1, for which, in assay [1], the binding entry was “binds”.

B2: FLAG-UBE4 (enzyme, UniProt Q9LF41 1-1038)
chain: MATSKPQRSPAEIEDIILRKIFYVTLTESTDSDPRIVYLEMTAAEILSEGKELLLSRDLMERVLIDRLSGDFSDAEPPFPYLIGCHRRAYDESKKIQSMKDKNLRSEMEIVTKQAKKLAVSYCRIHLGNPDMFGNSDKPSGGLDNRLKKRNVSPVLPLIFAEVGSGSLDMFGASSSGVQAPPGFLDEFFKDSDFDSLDSILKELYEDLRSTVINVSVLGDFQPPLRALKYLVSLPVGAKSLVSHEWWVPRGAYMNGRAMELTSILGPFFHISALPDNTLFKSQPDVGQQCFSEASERRPADLLSSFSTIKNFMNILYSGLHDVLMILLKSTDTRERVLQFLAEVINANASRAHIQVDPVSCASSGMFVNLSAVMLRLCEPFLDPHLTKRDKIDPKYAFCGHRLKLSDLTALHASSEEVTEWIGKDAMANANDAGRENGNESRLLQSKEATSSSSNASGQNAKSATKYTFICECFFMTARVLNLGLLKALSDFKHLAQDISRGEDNLATLKAMRDQAPSPQLELDISRMEKELELSSQEKLCHEAQILRDGDFIQRALSFYRLMVVWLVGLVGGFKMPLPSTCPMEFSCMPEHFVEDAMELLIFASRIPKALDGVPLDDFMNFIIMFMASPEYVRNPYLRAKMVEVLNCWMPRSSSSSSATSTLFEGHQLSLEYLVRNLLKLYVDIEFTGSHTQFYDKFNIRHNIAELLEYLWQVPSHRNAWRRIAKDEEKGVYLNFLNFLVNDSIYLLDESLNKILEIKQIEADMSNTAEWEQRPTQERQERTRLFHSQENIVRIDMKLANEDVTMLAFTSEEITAPFLLPEMVERVANMLNYFLLQLVGPQRKSLSLKDPEKYEFRPKQLLKQIVRIYVNLARGDTVNIFPGAISSDGRSYNEQLFNAGADVLRRIGEEGRIIQEFMELGTKAKAAASEALDAEAALGEIPDEFLDPIQYTLMRDPVILPSSRITVDRPIIQRHLLSDNHDPFNRAHLTSDMLIPDIELKAKIDEFVKSHQSKKRTSGEDSSNKERIQTTNSDMLID
In the case of B2, the binding entry in assay [2] is given as “binds”.
